Results taken from US20060166869A1, “Novel use of lipopeptide preparations” (priority 2002, published 2006).
Like-named read-outs stand apart in the source and are kept apart here. Some results were stated once for a whole list of compounds, not compound by compound.

Target: T1, SIV tilted peptide (Simian immunodeficiency virus, UniProt P05885)
T1 construct: SIV; 12; 528-539; […]; purchased SYNT:EM (Nimes, France)
Format: biochemical
Settings: charged LUV

cyclic fengycin A with a β-hydroxyled fatty acid chain containing 16 carbon atoms [FAC16]
inhibition of LUV fusion (Tris NaCl buffer pH 7.4, SIV tilted peptide 0.966 μM, agent at 0.8 μM (FIG. 6)): > 60%
inhibition of LUV fusion (Tris NaCl buffer pH 8.0, SIV tilted peptide 0.966 μM, agent at 3.22.10^−1 μM (FIG. 2)): > 60%
